According to PubChem BioAssay AID504467 (National Center for Advancing Translational Sciences (NCATS), 2011):
Among all 330,000 compounds or so, about 7,700 (2.3%) were called active. This list was built around the results that the source calls inconclusive (neither active nor inactive); the mix of calls is not that of the screen. Calls come from the whole dose curve; as a rule, active = well fitted inhibition curve with a large enough effect; inconclusive = small, poorly fitted or top-dose-only effect, or effect the other way; inactive = flat fitted curve, though single readings scatter. Where the call is inconclusive, the potency comes from a doubtful curve fit.

Assay: qHTS screen for small molecules that inhibit ELG1-dependent DNA repair in human embryonic kidney (HEK293T) cells expressing luciferase-tagged ELG1; note: nearly all actives have a fitted effect of over 55% in size
Conditions: HEK293T ELG1-luciferase reporter, luminescence, 16 h, DNA damage induced by 5-fluorouridine; series mostly up to 46.1 µM
In short: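 Cells (2,000 per well) received 5-fluorouridine plus test compound or DMSO and were incubated 16 hr at 37 °C, 5% CO2. Luciferase activity was read by luminescence 30 min after ONE-Glo addition; signal suppression marked inhibition of damage-induced ELG1 function.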
Potency is the fitted concentration of half-maximal effect.

Row | SMILES | Potency
1 | CCOCCCNC(=O)c1ccc(NC(C)=O)cc1 | inconclusive: 18.4 µM [activator, partial curve]
2 | O=C(NCc1ccccc1)c1ccc(S(=O)(=O)Nc2cccc(C(F)(F)F)c2)cc1 | active: 13 µM
3 | O=C1c2ccccc2C(=O)N1CCCCSc1nnc(-c2ccc(OC(F)F)cc2)o1 | inconclusive: 18.4 µM [inhibitor, single point]
4 | O=C(O)CCn1c2c(c3ccccc31)CCCC2 | inactive
5 | CCOC(=O)c1cnc(-n2nc(C)cc2C)nc1Oc1ccc(C#N)cc1 | inactive
6 | O=[N+]([O-])c1cc(F)c(N2CCOCC2)cc1N1CCCCC1 | inactive
7 | C/C(=N\NC(=O)CSCc1ccc([N+](=O)[O-])cc1)c1ccccc1 | inconclusive: 32.6 µM [inhibitor, single point]
8 | Cc1cccc(NC(=O)Cn2c(/C=C/c3ccccc3)nc3ccccc32)c1 | inconclusive: 5.17 µM [activator, full curve]
9 | COc1cc(C(=O)N(Cc2cc3cc(C)ccc3[nH]c2=O)CC2CCCO2)cc(OC)c1OC (configuration not stated) | inconclusive: 23.1 µM [inhibitor, partial curve, poor fit]
10 | COc1ccc(NC(=O)Cn2ncn3nc(-c4ccc(OC)cc4)cc3c2=O)cc1 | inconclusive: 16.4 µM [activator, partial curve, poor fit]
11 | O=c1[nH]c2ccc(S(=O)(=O)N3CCN(c4ccccc4F)CC3)cc2s1 | inconclusive: 29.1 µM [inhibitor, single point]
12 | Cc1c(C)n(CCc2ccccc2)c2ncnc(NN)c12 | inconclusive: 16.4 µM [inhibitor, single point]
13 | O=C(COC(=O)c1ccccc1O)NCCC1=CCCCC1 | inconclusive: 29.1 µM [activator, single point]
14 | CC(=O)Nc1ccc(/C=C2\CCc3ccccc3C2=O)cc1 | inconclusive: 8.2 µM [activator, partial curve]
15 | Cn1c(=O)cc(SCC(=O)N2CCCC2)c2cc(Cl)ccc21 | inconclusive: 14.6 µM [activator, partial curve]
16 | C#CCOCCOCCOCCNc1nc(N2CCN(C(=O)CCCCCCCCCCNC(=O)Cn3cc(C[C@@H](C)O)nn3)CC2)nc(N2CCN(C(=O)CCCCCCCCCCNC(=O)[C@@H](CCSC)n3cc(CCO)nn3)CC2)n1 | inactive
17 | CCOc1ccc(-c2ccc(SC)nn2)cc1 | inconclusive: 0.92 µM [activator, partial curve, poor fit]
18 | Cc1ccc(C)c2sc(NC(=O)C3CC3)nc12 | inactive
19 | Nc1cc2nn(-c3ccccc3)nc2cc1Cl | inconclusive: 2.91 µM [activator, full curve]
20 | O=C(COC(=O)/C=C/c1ccccc1)Nc1cc(C(F)(F)F)ccc1N1CCOCC1 | inactive
21 | CCOC(=O)c1ccc(N2C(=O)C(CC(=O)NC)N(CCc3ccc(OC)c(OC)c3)C2=S)cc1 (configuration not stated) | inconclusive: 16.4 µM [inhibitor, single point]

Of the compounds above, these have an NH in an aromatic ring.
Row | SMILES | Potency
9 | COc1cc(C(=O)N(Cc2cc3cc(C)ccc3[nH]c2=O)CC2CCCO2)cc(OC)c1OC (configuration not stated) | inconclusive: 23.1 µM [inhibitor, partial curve, poor fit]
11 | O=c1[nH]c2ccc(S(=O)(=O)N3CCN(c4ccccc4F)CC3)cc2s1 | inconclusive: 29.1 µM [inhibitor, single point]

Further results:

Row | SMILES | Potency
22 | CCn1c(=O)c(C(=O)Nc2ccccc2S(N)(=O)=O)c(O)c2ccccc21 | inconclusive: 14.6 µM [activator, partial curve]
23 | COc1cccc2c1C(CO)N1C(C#N)C3CC(C(=O)O)C(C1C2)N3C (configuration not stated) | active: 0.326 µM
24 | COc1cc(OC)c(C2N(c3ccccn3)C(=O)C3CCCN32)cc1OC (configuration not stated) | inconclusive: 23.1 µM [inhibitor, partial curve, poor fit]
25 | CC(=O)Nc1cccc(OCc2ccc(S(=O)(=O)Cc3ccccc3)cc2)c1 | inconclusive: 5.17 µM [activator, full curve, poor fit]
26 | CCCc1cc(-c2n[nH]c(C(=O)OCC)c2-c2cscn2)c(O)cc1O | inconclusive: 23.1 µM [inhibitor, partial curve, poor fit]
27 | COc1ccc(C(CCNCc2ccccc2)c2ccc(F)cc2)cc1 (configuration not stated) | inactive
28 | O=C1CC(N(CCc2ccccc2)C(=S)Nc2ccccc2)C(=O)N1c1ccccc1 (configuration not stated) | inactive
29 | CC(C)c1ccc(NC(=S)N2CCCC2)cc1 | inconclusive: 18.3 µM [activator, partial curve]
30 | CCOC(=O)c1c(-c2ccc(OC)cc2)csc1NC(=O)CSc1nnc(C)c(=O)[nH]1 | inactive
31 | CC(=O)c1ccc(S(=O)(=O)N2CCC(C(=O)Nc3ncc(C)s3)CC2)cc1 | inconclusive: 23.1 µM [inhibitor, partial curve]
32 | CCCCCCCCCCCCN1C/C(=C\C(=O)OCC)c2ccccc2S1(=O)=O | inactive
33 | CCOC(=O)c1sc2nc(CC(=O)OC)nc(NCC(=O)OC)c2c1C | inconclusive: 11.6 µM [inhibitor, single point]
34 | CCN(CCO)c1ccc(NC(=S)Nc2cccc(S(=O)(=O)N(C)C)c2)cc1 | inconclusive: 25.9 µM [inhibitor, single point]
35 | COc1ccc(/C=C/C(=O)Oc2ccc(/C=N/NC(=O)COc3c(C)cccc3C)cc2)cc1 | inactive
36 | O=C(CCSCc1ccccc1F)NCCc1ccccc1 | inactive
37 | Nc1cccc(-n2cccc2)c1 | inactive
38 | CCN(CC)S(=O)(=O)c1ccc2oc(C(=O)N3CCCCCC3)c(C)c2c1 | inconclusive: 25.9 µM [inhibitor, single point]
39 | CCOc1ccccc1N1CC(C(=O)Nc2ccc(S(=O)(=O)N3CCCCC3)cc2)CC1=O (configuration not stated) | inactive
40 | Cc1ccc(S(=O)(=O)N(C)c2ccc(OC(=O)c3cccs3)cc2)cc1 | inactive
41 | CCCCNC(=O)CCn1ccc2cc(S(=O)(=O)N3CCCC3)ccc21 | inactive
42 | CCOC(=O)N1CCN(C(=S)Nc2ccc(C)cc2)CC1 | inactive

Row | SMILES | Potency
43 | COc1ccc(-c2nc(-c3cccs3)no2)cc1 | inconclusive: 0.366 µM [activator, full curve, poor fit]
44 | O=C(Nc1ccc(C(=O)O)cc1)/C(=C\c1ccccc1)NC(=O)c1ccccc1 | inactive
45 | C/C(=N/NC(=O)C1CCN(S(=O)(=O)c2ccc(C)cc2)CC1)c1cccc([N+](=O)[O-])c1 | inconclusive: 23.1 µM [inhibitor, partial curve]
46 | CCCc1nc(NC(=O)c2ccccc2)nc(NC(=O)c2ccccc2)n1 | inconclusive: 20.6 µM [inhibitor, single point]
47 | Cc1ccc2c(CN(C)Cc3ccccc3)cc(=O)oc2c1C | inconclusive: 23.1 µM [activator, partial curve]
48 | Cc1ccc(N(C(=O)Cc2c[nH]c3ccccc23)C(C(=O)NC2CCCCC2)c2ccco2)cc1 (configuration not stated) | inconclusive: 29.1 µM [inhibitor, single point]
49 | CCOC(=O)c1c(C)[nH]c(C2=NNC(=Nc3ccccc3)SC2)c1C | inconclusive: 29.1 µM [inhibitor, single point]
50 | CCn1c2ccccc2c2nc3cc(OC)c(OC)cc3nc21 | inconclusive: 13 µM [inhibitor, partial curve]
51 | COc1cc(/C=N/N=C(\N)c2nonc2N)cc(OC)c1OC | inconclusive: 29.1 µM [activator, single point]
52 | N/C(=N\OCC(=O)Nc1ccc(F)c(Cl)c1)c1ccccc1 | inactive
53 | C=CCNc1nc(Nc2ccc(-c3nc4ccccc4o3)cc2)nc(N2CCOCC2)n1 | active: 14.6 µM
54 | COCCNC(=O)C(c1ccc(C)cc1)N(Cc1cccs1)C(=O)CCC(=O)Nc1ccccn1 (configuration not stated) | inactive
55 | CC(Oc1ccc(Cl)cc1Cl)C(=O)NCc1ccncc1 (configuration not stated) | inconclusive: 4.61 µM [inhibitor, partial curve, poor fit]
56 | c1ccc2c(c1)oc1c(Nc3ccc4c(c3)OCCO4)ncnc12 | inconclusive: 2.06 µM [activator, partial curve]
57 | CCN(CC)CCCNC(=O)c1cn(CC(C)C)c(=O)c2c1c1ccccc1n2C | inactive
58 | N#C/C(=C\c1cc2c(cc1Br)OCO2)C(=O)NCC1CCCO1 (configuration not stated) | inconclusive: 18.3 µM [activator, partial curve]
59 | COc1ccc(C2=CC(=O)C=CC2=O)cc1 | inactive
60 | CCOc1ccc(C(=O)Cc2cc3cccc(OC)c3oc2=O)cc1 | inactive
61 | CCOc1ccc(C(=O)Nc2ccc3c(c2)OCCO3)cc1 | inconclusive: 1.16 µM [activator, partial curve, poor fit]
62 | Cc1nn(Cc2ccc(Cl)cc2)c(C)c1NC(=O)CCCn1nc(C)c([N+](=O)[O-])c1C | inconclusive: 18.4 µM [inhibitor, partial curve]
